Test results published in article PMC4354014.
These are yes or no findings as the source states them, for the method shown. Some binding calls cover weakened binding; strength is not graded here.

Target: T1, CD25, the α-chain of the IL-2 receptor (mouse, on CTLL-2 cells) (mouse (endogenous in CTLL-2)) (UniProt P01590)
T1 sequence: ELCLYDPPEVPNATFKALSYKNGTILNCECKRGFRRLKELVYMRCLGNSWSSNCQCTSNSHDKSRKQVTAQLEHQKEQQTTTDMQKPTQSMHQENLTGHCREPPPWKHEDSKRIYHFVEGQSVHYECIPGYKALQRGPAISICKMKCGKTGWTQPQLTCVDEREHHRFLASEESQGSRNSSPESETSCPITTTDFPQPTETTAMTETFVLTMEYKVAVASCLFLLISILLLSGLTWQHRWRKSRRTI
Assay: flow cytometry on cells; 1 x 10^5 CTLL-2 or CTLL-2^ARTC2.2 cells with 5 ng biotinylated IL-2 in 100 μl PBS, 0.1% BSA, 60 min at 4°C, then APC-conjugated streptavidin; parallel aliquots pre-incubated with or without 500 ng unlabeled mIL-2 or 50 μM NAD+; only the binder purified

B1: unlabeled mouse IL-2 (ligand, UniProt P04351 21-169)
chain: APTSSSTSSSTAEAQQQQQQQQQQQQHLEQLLMDLQELLSRMENYRNLKLPRMLTFKFYLPKQATELKDLQCLEDELGPLRHVLDLTQSKSFQLEDAENFISNIRVTVVKLKGSDNTFECQFDDESATVVDFLRRWIAFCQSIISTSPQ
  binding: binds
